Values quoted from earlier work, collected in patent publication US12036221B2, “Ketamine or dextromethorphan formulations and methods of use” (West Virginia University, priority 2014, dated 2024).
At least one compound was matched to its structure with a doubt left.

Tested on: NMDA
Conditions: cited from earlier work

In the case of `CN1CC[C@@]23CCCC[C@@H]2[C@@H]1Cc1ccc(O)cc13` [dextrorphan], the NMDA antagonist actions is given as “robust NMDA antagonist actions”.
